We go through 21 substances from US6511961B1 (Toray Industries, Inc., priority 1997, dated 2003).

The nature of the data set: general procedure: Fmoc solid-phase peptide synthesis; Fmoc-protected amino acid bonded resin, or Fmoc-protected resin; PyBOP-HOBT. Particulars: cyclisation step, CF3COOH salt.

Regarding C*IDSLC*, the cyclisation yield was found to be 62%.

Consider C*IDHLC*, for which the cyclisation yield entry (on linear precursor) was “yield 73%”.

Turning to C*INHLC*, the cyclisation yield was determined as 85%.

C*IDALC*: the cyclisation yield turned out to be 52%.

For C*IDWLC*, the cyclisation yield is given as 47%.

With C*IDHLC—OMe*, the cyclisation yield is given as 35%.

Take C*IDHIC*: the cyclisation yield amounted to 50%.

For C*INHLC*—NH2, the cyclisation yield is listed as 18%.

In the case of C*ADHLC*, the cyclisation yield is recorded as 59%.

For the substance AcC*IDHLC*, the cyclisation yield is 68%.

For the substance Mpr*IDHLC*, the cyclisation yield was determined as 33%.

As for dC*IDHLC*, the cyclisation yield is given as 39%.

On to Pen*IDHLC*, for which the cyclisation yield was 30%.

C*IDYLC*: where the note is “on linear precursor”, the cyclisation yield entry is recorded as “yield 61%”.

C*IDTLC*: the cyclisation yield stood at 70%.

In the case of C*IEHLC*, the cyclisation yield stood at 71%.

For the substance C*IDHLC*—NH2, the cyclisation yield is recorded as 58%.

Turning to C*IDFLC*, the cyclisation yield turned out to be 50%.

Turning to C*VDHLC*, the cyclisation yield came to 75%.

As for C*IDFIC*, the cyclisation yield turned out to be 37%.

As for C*IYHLC*, the cyclisation yield worked out at 52%.
